These results are taken from doi:10.1101/2021.06.22.449524.

The test addresses T1, potassium channel tetramerization domain containing 19 (KCTD19) (mouse (endogenous in testis)) (UniProt Q562E2).
T1 sequence: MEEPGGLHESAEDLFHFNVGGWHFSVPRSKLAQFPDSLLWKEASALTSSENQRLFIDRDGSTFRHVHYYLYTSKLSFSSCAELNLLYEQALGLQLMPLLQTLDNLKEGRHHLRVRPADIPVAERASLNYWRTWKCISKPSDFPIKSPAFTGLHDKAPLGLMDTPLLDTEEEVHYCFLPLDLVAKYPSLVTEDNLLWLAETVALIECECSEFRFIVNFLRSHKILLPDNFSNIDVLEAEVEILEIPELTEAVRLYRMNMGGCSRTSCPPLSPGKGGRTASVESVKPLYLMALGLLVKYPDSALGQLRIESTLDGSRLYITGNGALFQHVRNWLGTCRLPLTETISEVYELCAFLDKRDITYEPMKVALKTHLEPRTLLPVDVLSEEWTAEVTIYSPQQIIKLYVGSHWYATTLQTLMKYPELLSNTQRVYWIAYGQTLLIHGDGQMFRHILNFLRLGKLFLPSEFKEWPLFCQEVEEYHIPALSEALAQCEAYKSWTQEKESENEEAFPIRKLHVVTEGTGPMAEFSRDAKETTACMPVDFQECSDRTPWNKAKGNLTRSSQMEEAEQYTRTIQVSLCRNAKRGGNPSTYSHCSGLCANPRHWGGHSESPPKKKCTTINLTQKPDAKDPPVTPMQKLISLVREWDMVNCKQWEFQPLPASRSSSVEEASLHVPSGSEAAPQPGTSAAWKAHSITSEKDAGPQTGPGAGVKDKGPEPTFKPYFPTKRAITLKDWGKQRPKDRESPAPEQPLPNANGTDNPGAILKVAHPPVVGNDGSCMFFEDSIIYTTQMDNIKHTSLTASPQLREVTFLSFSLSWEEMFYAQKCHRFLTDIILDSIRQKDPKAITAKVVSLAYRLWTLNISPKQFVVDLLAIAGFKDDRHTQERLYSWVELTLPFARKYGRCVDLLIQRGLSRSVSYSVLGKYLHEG
The experiment in a line: co-IP.

Results are given in words; binding and its absence hold for the method and conditions named. In cells and extracts the contact can be indirect. Some results given as binding are weak or reduced against the parent protein; the word gives no strength.

B1: zinc finger protein 541 (ZFP541) (protein, UniProt Q0GGX2 1-1363)
chain: MEPYSLGEEGALPSEGHLPSFSESQVLNCSDTLNRDLGPSTRDLLYAGLSGLDLDPSLSTSDMPSEVLEDNLDTLSLYSGKDSDSVKLLEEYADSESQTSLQDLGLGALKVPKEADEGGRATGSTRKGKRQHSSPQNPLLDCSLCGKVFSSASSLSKHYLTHSQERKHVCKVCSKAFKRQDHLTGHMLTHQKTKPFVCIEQGCSKSYCDYRSLRRHYEVQHGVCILKETPPEEEAYGDPTHNHDVANQPPPSGLRSLGPPEARSPGSVLPNRDLLRCIVSSIVHQKIPSPGPAVGPSDTEARSSACACPTSLGSSSCTPASTPVALGTLGSEIPEETHPPRKEAATEVFTPVQSRAAENGVPDPPESELESESPRLQRPSSLEGWPEGSSLPACLPLFRGHSVPSGSQPSSHNFQWLRNLPGCPKNKGSNVFMVHKPPAVASREGSEGGGSGPSSTPTSVEPSPSLGTTQEELLPFPPALLKAPGEASSEVRQAAGEDETWAPKKCKPDCESFPWQSPTELGLQDAQNPGGLPSDATPLFRQLFMKSQESLVSHEQMQVLQMIAKSQRIFSHTQVATASAQRPGPEGKQSTLKPLQGPWPPQTLPPAPTVDSFQIGPGHSEPEGSPVRRRKTMPAVSRETSPGGPRRDTKGGPKVASAPPSLTGPGLLPSRNPDSSSLAKGTLDLGDIIPNAGSRQSQLGGDEPAGTQLVGKQGQGENGLASGAMRGEKGPACPRGGGYRLFSGHPRAQRFSGFRKEKVKMDVCCAASPSQVAMASFSSAGPLADPPRDMKSKLTIFNRIQGGNIYRLPHPVKEESLAGGCHQPNGGPTDWMESKSTFVCKNCSQMFYTEKGLSSHMCFHSDQWPSPRGKQEQQVKGQMVASVKRKAGREEGAVEDMKRHYDCSSSEPQDVTILSMLVSSGSCGVTPVVLSSLLQGQEKDGEERDSKESCQYRKRKKRPQPKALFAPPAPSALGEPGPGGCHQSCLHSPVFLVDHLLKGLFQCSPYTPPPMLSPIREGSGLYFNTLCSTSRAGPHLISPVLDQVDSSFGICVVKDDTKISIEPHINVGSRFQAEIPELQERLLARVDENVASLVWKPWGDVMTNPETQDRVMELCNVACSSVMPGGGTNLELALHCLHDAQGSVQVALETLLLRGPQKPRTHPLADYRYTGSDIWTPMEKRLFKKAFCAHKKDFYLIHKMIQTKSVAQCVEYYYIWKKMVKFDCGRAPGLEKRGRRELDEVERTEDKVTCSPRERPTHRPTPELKIKTKSYRRESILHSSPSAAPKRTPEPPGSVESQGVFPCRECERVFDKIKSRNAHMKRHRLQEHVEPVRVKWPVKPYPLKEEEEEEEEELGADMGPLQW
For B1, the binding result is “binds”.
